{
  "source": "patent US8263823B2",
  "about": "“Immunocompetent xenograft model” (Adimmu Institute Inc., priority 2008, dated 2012)",
  "key": {"B16-CCR7 cells": {"test_system": "B16-CCR7 cells", "assay": "B16-CCR7 melanoma tumor growth, radiation therapy with or without dacarbazine or CD8 depletion", "format": "in vivo, mouse"}, "[1]": {"test_system": "CD8+ 2C transgenic T-cells", "conditions": "dacarbazine 200 mg/kg i.p. added to 20 Gy radiation therapy; DLN and SP"}},
  "note": "At least one structure is not confirmed: it was looked up by name or label, or the drawing left a doubt.",
  "data": [
    {"molecule": "CN(C)/N=N/c1[nH]cnc1C(N)=O", "note": "[dacarbazine]", "values": [
      {"measurement": "tumor regression", "setting": "B16-CCR7 cells; dacarbazine 200 mg/kg i.p. on days 7 and 14 after radiation therapy (15 Gy x3)", "result": "significantly hindered melanoma tumor regression and promoted tumor outgrowth"},
      {"measurement": "regrowth of the tumor", "setting": "B16-CCR7 cells; dacarbazine added after radiation therapy, day 26 (p=0.0075) and day 32 (p=0.015) after radiation therapy", "result": "significant regrowth of the tumor"},
      {"measurement": "tumor regression", "setting": "B16-CCR7 cells; dacarbazine alone, compared to the control mice", "result": "no tumor regression"},
      {"measurement": "priming of CD8+ T-cells", "setting": "[1]", "result": "can eliminate the priming of CD8+ T-cells"}
    ]}
  ]
}
